In all, about 220,000 compounds went through this assay and about 2,400 (1.1%) were called active. The shares of active, inactive and inconclusive entries below differ from those in the screen. Calls follow the shape of the dose curve; as a rule, active = well fitted inhibition curve with a large enough effect; inconclusive = small, poorly fitted or top-dose-only effect, or effect the other way; inactive = no such curve, though single readings can be large or run the other way. Potencies of inconclusive entries are doubtful fits and often do not repeat.
Experiment: qHTS Multiplex Assay to Identify Dual Action Probes in a Cell Model of Huntington: Aggregate Formation (GFP); also: nearly all actives have a fitted effect of over 60% in size
Settings: PC12 HttQ103-GFP aggregates, Acumen cytometry, 40 h; activity change, negative = inhibition: at 46.1 µM (top of the series) unless noted
Procedure, shortened: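 PC12/HTTQ103-GFP, ecdysone-inducible; teb 100 nM; cpd qHTS titration; GFP aggregates read on laser cytometer, Ex 488/Em 500-530 nm.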
% is scaled to controls: 0 for no effect and ±100 for the full control effect; potency is read from the fitted curve at half-maximal effect.

Structure (SMILES) | Potency | activity change, negative = inhibition
Cc1ccc(S(=O)(=O)NCC2CCC(C(=O)NCCCN3CCOCC3)CC2)cc1 (configuration not stated) | inactive | 
COc1ccc(-n2cc(CNC3CCN(C)CC3)c(-c3cccc(F)c3)n2)cc1 | inconclusive: 15.8 µM [inhibitor, single point] | 
CCOc1ccc(S(=O)(=O)Nc2cc(C)ccn2)c2ccccc12 | inconclusive: 11.2 µM [inhibitor, partial curve] | 
O=C(Nc1cccc(S(=O)(=O)c2cccc(NC(=O)C3CC3)c2)c1)C1CC1 | inconclusive: 35.5 µM [inhibitor, single point] | 
COc1ccc(C2C(C(=O)c3ccco3)=C(O)C(=O)N2CCc2ccccc2)cc1OC (configuration not stated) | inactive | 
Cc1cc(C)c(NC(=O)c2ccc(S(=O)(=O)N(C)C)cc2)c(C)n1 | inconclusive: 0.562 µM [inhibitor, partial curve, poor fit] | 
O=C(CCN1CCC(c2ccccc2)C1)c1ccc2c(c1)OCCO2 (configuration not stated) | inconclusive: 35.5 µM [inhibitor, single point] | 
Cn1c(=O)oc2cc(S(=O)(=O)N3CCCC(C(=O)N4CC=C(c5ccccc5)CC4)C3)ccc21 (configuration not stated) | active: 11.2 µM | 
Cc1nn(Cc2ccc(C(=O)Nc3nc4c(C)cccc4s3)o2)c(C)c1Br | active: 17.8 µM | 
Cn1nc(N)c2c(-c3ccc(Cl)cc3)c(C#N)c(N)nc21 | inconclusive: 3.55 µM [inhibitor, partial curve] | 
O=C(Nc1cccc(NC(=O)N2CCN(c3ccccc3)CC2)c1)N1CCN(c2ccccc2)CC1 | inconclusive: 31.6 µM [inhibitor, single point] | 
CCCCNC(=O)/C=C/c1cccs1 | inconclusive: 20 µM [activator, single point] | 
COc1ccccc1NC(=S)NNC(=O)c1nn(C)c(C)c1Br | inactive | 
COc1ccc(OC)c(NC(=O)c2cc(-c3ccc(C)cc3O)n[nH]2)c1 | inconclusive: 0.282 µM [inhibitor, full curve, poor fit] | 
COc1cc(C(=O)O/N=C2\C=CC(=O)C=C2C)cc(OC)c1OC | inconclusive: 35.5 µM [inhibitor, single point] | 
COc1ccc(-c2cnnc(N/N=C/c3ccc(C)o3)n2)cc1 | inactive | 
CNC(=O)NC(=O)C(C)OC(=O)c1c2c(nc3ccccc13)/C(=C/c1cccs1)CC2 (configuration not stated) | inconclusive: 35.5 µM [inhibitor, single point] | 
c1ccc(-c2ccccc2OCCCN2CCCC2)cc1 | inconclusive: 0.891 µM [inhibitor, full curve, poor fit] | 
Cc1ccc(CNc2oc(-c3ccco3)nc2S(=O)(=O)c2ccccc2)cc1 | inactive | 
O=C(NCc1cccnc1)c1ccc(COc2ccccc2Cl)cc1 | inconclusive: 12.6 µM [inhibitor, single point] | 
C=CCn1c(SCC#N)nc2c(c1=O)C(C)(C)Cc1ccccc1-2 | active: 10 µM | 
CN1/C(=C\C(=O)COC(=O)C2COc3ccccc3O2)C(C)(C)c2ccccc21 (configuration not stated) | inconclusive: 14.1 µM [inhibitor, single point] | 
COc1ccccc1C1C2CCCCC2(O)CCN1CC(=O)Nc1ccccc1 (configuration not stated) | inconclusive: 1 µM [activator, partial curve] | 
Cc1onc(-c2ccccc2Cl)c1C(=O)Nc1cccc(-c2cn3cccnc3n2)c1 | inactive | 

Structure (SMILES) | Potency | activity change, negative = inhibition
Cc1ccc(-c2noc(CCC(=O)NCCCN3CCN(c4cccc(Cl)c4)CC3)n2)cc1 | inconclusive: 35.5 µM [inhibitor, single point] | 
N#CCCn1cc(/C=N/NC(N)=S)c(-c2ccc(-c3ccccc3)cc2)n1 | inconclusive: 35.5 µM [inhibitor, single point] | 
O=[N+]([O-])c1ccccc1N/N=C/c1ccc2c(c1)OCO2 | inconclusive: 2.82 µM [activator, partial curve] | 
O=C(NCc1cccs1)Nc1cccs1 | inconclusive: 35.5 µM [inhibitor, single point] | 
COc1ccccc1NS(=O)(=O)c1cccc(NC(=O)Nc2cccc(Cl)c2)c1 | inactive | 
O=C(NC(c1ccccc1)c1cc(Cl)c2cccnc2c1O)c1cccnc1 (configuration not stated) | active: 3.98 µM | 
COc1cc(-n2cnnn2)ccc1S(=O)(=O)N1CCOCC1 | inconclusive: 35.5 µM [activator, single point] | 
Nc1nc(-c2cccs2)c(NC(=O)c2ccccc2)s1 | inconclusive: 12.6 µM [inhibitor, partial curve] | 
O=C(c1cccc([N+](=O)[O-])c1)c1ccc2c(c1)C(=O)N(c1c[nH]c(=O)[nH]c1=O)C2=O | inactive | 
CC1CC(C)CN(S(=O)(=O)c2ccc(C(=O)N(c3ccccn3)C3CCCCC3)cc2)C1 (configuration not stated) | inconclusive: 35.5 µM [inhibitor, single point] | 
COc1ccc(COC(=O)NC2CCN(S(=O)(=O)c3ccc(OC)cc3)CC2)cc1 | inconclusive: 14.1 µM [inhibitor, single point] | 
Cn1cc2cccc([N+](=O)[O-])c2n1 | inactive | 
COc1cccc(/C=N/Nc2nc3ccccc3[nH]2)c1O | inconclusive: 1 µM [inhibitor, single point] | 
O=C(COC(=O)c1ccccc1C(=O)c1ccc(Cl)c([N+](=O)[O-])c1)NC1CC1 | inconclusive: 22.4 µM [inhibitor, single point] | 
Cc1ccc(NC(=O)c2cc(C)on2)cc1 | inconclusive: 14.1 µM [inhibitor, single point] | 
C=CCn1c(SCC)nc2sc3c(c2c1=O)CCc1ccccc1-3 | inactive | 
CC(=O)c1cc(F)c(N2CCN(C(=O)C(C)(C)C)CC2)cc1C | inconclusive: 17.8 µM [inhibitor, single point] | 
CC(=O)NCc1ccc(C(=O)CCl)s1 | inconclusive: 35.5 µM [inhibitor, single point] | 
CCc1cccc(C)c1NC(=O)c1cc(C)oc1C | active: 1.26 µM | 
Cn1cnnc1SCC(=O)Nc1ccc2nc(SCc3cccc4ccccc34)sc2c1 | inconclusive: 12.6 µM [inhibitor, partial curve] | 
CN(c1ccccc1C(=O)Nc1ccccc1C(=O)NCc1ccco1)S(C)(=O)=O | inactive | 
Cc1cc(Br)ccc1NC(=O)CN1C(=O)C2C3CC(c4ccccc4)C(C3)C2C1=O (configuration not stated) | inconclusive: 11.2 µM [inhibitor, single point] | 
NC(=O)CSc1nnnn1-c1cccc(Cl)c1 | inconclusive: 0.501 µM [inhibitor, partial curve] | 
CC(C)(C)n1nnnc1CN1C2CCC1CC(NC(=O)Nc1ccccc1)C2 (configuration not stated) | inactive | 

Four entries from above, in CSV form:
Structure (SMILES),Potency,"activity change, negative = inhibition"
O=C(NCc1cccs1)Nc1cccs1,"inconclusive: 35.5 µM [inhibitor, single point]",
COc1ccccc1NS(=O)(=O)c1cccc(NC(=O)Nc2cccc(Cl)c2)c1,inactive,
O=C(NC(c1ccccc1)c1cc(Cl)c2cccnc2c1O)c1cccnc1 (configuration not stated),active: 3.98 µM,
COc1cc(-n2cnnn2)ccc1S(=O)(=O)N1CCOCC1,"inconclusive: 35.5 µM [activator, single point]",

Later entries

Structure (SMILES) | Potency | activity change, negative = inhibition
Cc1nc2ccccc2c2nc(NC(=O)Cc3ccccc3)nn12 | inconclusive: 5.62 µM [activator, single point] | 
NC(=O)CCC(NS(=O)(=O)c1ccc(Cl)cc1)C(=O)NCc1ccccc1 (configuration not stated) | inactive | 
O=C(C/C(=N\NC(=O)c1ccccc1Br)C(F)(F)F)c1cccs1 | inconclusive: 28.2 µM [inhibitor, single point] | 
CC1(C)C=Cc2cc3ccc(=O)oc3cc2O1 |  | inactive: -17.1% [at 9.22 µM]
O=C1C(=Cc2ccco2)C(=O)c2ccccc21 | inconclusive: 35.5 µM [activator, single point] | 
CNCC(O)Cn1c(C(F)(F)F)nc2ccccc21 (configuration not stated) | inactive | 
COc1ccccc1Cn1c(-c2ccccc2OC)nc2ccccc21 | inconclusive: 31.6 µM [inhibitor, single point] | 
COC(=O)Nc1ccc(S(=O)(=O)Nc2cccc3ccccc23)cc1 | inconclusive: 11.2 µM [inhibitor, partial curve] | 
COc1ccc(OC)c(NC(=O)Cc2nn(C)c(=O)c3ccccc23)c1 | inconclusive: 28.2 µM [inhibitor, single point] | 
CC1(C)CC(=O)C(C=NCC(N)=O)=C(O)C1 | active: 11.2 µM | 
Cc1cc(O)c2ccccc2c1O | inconclusive: 28.2 µM [inhibitor, single point] | 
CC(=O)N1CCN(CC(=O)Nc2cc([N+](=O)[O-])ccc2Cl)CC1 | inactive | 
Cc1onc(-c2c(Cl)cccc2Cl)c1NC(=O)NN(C)c1ccc([N+](=O)[O-])cn1 |  | inactive: -6.33% [at 9.22 µM]
Cn1c(=O)c(=O)n(C)c2cc(S(=O)(=O)N3CCN(C4CCCCC4)CC3)ccc21 | inconclusive: 0.794 µM [activator, single point] | 
CCOc1ccc(OCC)c(S(=O)(=O)N2CCOCC2)c1 |  | inactive: -4.41% [at 9.22 µM]
COc1cnc(-c2ccccn2)nc1NC(C)C | inactive | 
O=C(N/N=C/c1c(O)ccc2ccccc12)c1[nH]ncc1Br | active: 1.12 µM | 
COc1ccc(S(=O)(=O)Nc2ccccc2SC)cc1C | inconclusive: 35.5 µM [inhibitor, partial curve] | 
COc1ccc(N(CC(=O)NCC(C)C)S(=O)(=O)c2ccccc2)cc1 |  | inactive: 6.2% [at 9.22 µM]
Cn1c(=O)c2c(nc(CN3CCN(C(=O)c4ccco4)CC3)n2Cc2ccccc2F)n(C)c1=O | inactive | 
CCOC(=O)N1CCN(C(=O)CCCn2nc(C)c3sc4ccccc4c3c2=O)CC1 | inconclusive: 20 µM [inhibitor, partial curve, poor fit] | 
Cc1sc2ncnc(NC3CCN(Cc4ccccc4)CC3)c2c1C | active: 7.08 µM | 
Oc1c(N=NC(=S)Nc2ccccc2F)c2ccccc2n1Cc1cccc(Cl)c1 | inconclusive: 7.94 µM [inhibitor, partial curve, poor fit] | 
CN(CCCNC(=O)c1cc2c(Cl)nc3ccccc3c2s1)Cc1ccccc1 | inconclusive: 35.5 µM [inhibitor, single point] | 

2 entries drawn at random from the list so far:
Structure (SMILES) | Potency | activity change, negative = inhibition
O=C(C/C(=N\NC(=O)c1ccccc1Br)C(F)(F)F)c1cccs1 | inconclusive: 28.2 µM [inhibitor, single point] | 
COc1cnc(-c2ccccn2)nc1NC(C)C | inactive | 

Reference: PubChem BioAssay AID1688 (National Center for Advancing Translational Sciences (NCATS), 2009)
